Taken from: PubChem BioAssay AID1508588 (Peter MacCallum Cancer Centre, 2020)

Purpose: 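Which gene losses make BRAF-mutant melanoma cells more responsive to vemurafenib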 (primary screen)
System: human WM266.4 melanoma cells (BRAF V600 mutant)
Knock-down reagent: siRNA pool against human genes, 40 nM
Time to read-out: 96 h from transfection to read-out
Challenge: vemurafenib 300 nM (about IC25), added 48 h after transfection, for 48 h; comparison arm got DMSO vehicle only
Measurement: 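Ratios to non-targeting siRNA for cell gain, counted as DAPI nuclei after minus before drug and averaged over two replicates, and for absorbance-read medium lactate per cell; both binned into fold-change classes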
Direction: cell gain with vemurafenib: higher = more cell gain than with non-targeting siRNA; lactate per cell with vemurafenib: higher = more lactate made per cell
Rule for the call: 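a knock-down counts as enhancing when its fold-change classes with vehicle and with vemurafenib, taken together, show a stronger drug effect on cell gain or lactate per cell; exact class pairs not stated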
Calls: active = enhances vemurafenib effect; inactive = no enhancement seen
In all, the deposit lists about 18,000 reagents; below is an unselected part. Of all reagents, 790 (4.4%) got an active call. 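Calls rest on a combination of fold-change classes in drug and vehicle arms, not all shown here.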 Entries without a mark were called inactive.

no.	Gene	cell gain with vemurafenib	lactate per cell with vemurafenib
1	RNPEPL1 (arginyl aminopeptidase like 1)	0.58	0.87
2	PCDHGA9 (protocadherin gamma subfamily A, 9)	0.48	1.65
3	NXNL1 (nucleoredoxin like 1)	0.6	1.15
4	SFT2D3 (SFT2 domain containing 3)	0.68	0.68
5	KLHL31 (kelch like family member 31)	0.87	0.63
6	CYP39A1 (cytochrome P450 family 39 subfamily A member 1)	0.19	2.27
7	B4GALT2 (beta-1,4-galactosyltransferase 2)	0.61	1.09
8	RCOR3 (REST corepressor 3)	0.53 (active)	0.43
9	TNRC6A (trinucleotide repeat containing adaptor 6A)	0.43	1.36
10	CLTCL1 (clathrin heavy chain like 1)	0.5	1.07
11	POM121L12 (POM121 transmembrane nucleoporin like 12)	0.31 (active)	-0.08
12	OVCA2 (OVCA2 serine hydrolase domain containing)	0.98	0.76
13	FLJ46838 (retired record)	1.07	0.8
14	KRTAP19-1 (keratin associated protein 19-1)	0.71	0.96
15	GBP7 (guanylate binding protein 7)	0.63	0.34
16	CDC20B (cell division cycle 20B)	0.9	1.73
17	MCHR1 (melanin concentrating hormone receptor 1)	0.56	0.55
18	SALL4 (spalt like transcription factor 4)	0.78	1.91
19	WDR26 (WD repeat domain 26)	0.31	1.23
20	RAP2B (RAP2B, member of RAS oncogene family)	0.66	1.29
21	PYCR3 (pyrroline-5-carboxylate reductase 3)	0.46	0.3
22	WNT3 (Wnt family member 3)	0.48	1.77
23	MAGEA11 (MAGE family member A11)	0.54	1.16
24	MS4A13 (membrane spanning 4-domains A13)	0.55	0.8
25	RADX (RPA1 related single stranded DNA binding protein, X-linked)	1.09	0.94
26	SDCBP2 (syndecan binding protein 2)	0.85	0.8
27	MPP2 (MAGUK p55 scaffold protein 2)	0.28	0.79

Limited to “cell gain with vemurafenib” (9 entries from above):
OVCA2 (OVCA2 serine hydrolase domain containing) = 0.98
FLJ46838 (retired record) = 1.07
KRTAP19-1 (keratin associated protein 19-1) = 0.71
GBP7 (guanylate binding protein 7) = 0.63
CDC20B (cell division cycle 20B) = 0.9
MCHR1 (melanin concentrating hormone receptor 1) = 0.56
SALL4 (spalt like transcription factor 4) = 0.78
WDR26 (WD repeat domain 26) = 0.31
RAP2B (RAP2B, member of RAS oncogene family) = 0.66

The listing continues:
no.	Gene	cell gain with vemurafenib	lactate per cell with vemurafenib
28	MRE11 (MRE11 double strand break repair nuclease)	0.54	0.74
29	SLC3A2	0.44	0.7
30	SH2D3C (SH2 domain containing 3C)	-0.13	5.04
31	DCK (deoxycytidine kinase)	0.17	1.42
32	ABCA3 (ATP binding cassette subfamily A member 3)	0.27	1.12
33	GFI1B (growth factor independent 1B transcriptional repressor)	0.57	1.12
34	ANKRD7 (ankyrin repeat domain 7)	0.12	1.5
35	TMEM87B (transmembrane protein 87B)	0.83	0.64
36	C19orf73 (chromosome 19 open reading frame 73)	0.61	1.01
37	ADNP2 (ADNP homeobox 2)	-0.05	3.31
38	LCE2B (late cornified envelope 2B)	0.77	0.88
39	ALOX12 (arachidonate 12-lipoxygenase, 12S type)	1.16	1.02
40	ZNF595 (zinc finger protein 595)	0.77	0.57
41	PLAT (plasminogen activator, tissue type)	0.63	0.98
42	SBF2 (SET binding factor 2)	0.35	1.28
43	GPHA2 (glycoprotein hormone subunit alpha 2)	0.74	0.54
44	RAD51B (RAD51 paralog B)	0.63	0.86
45	NEIL2 (nei like DNA glycosylase 2)	0.48	0.94
46	ODC1 (ornithine decarboxylase 1)	0.07	1.26
47	SAG (S-antigen visual arrestin)	0.28	2.42
48	WDR20 (WD repeat domain 20)	0.63	0.31
49	QSOX2 (quiescin sulfhydryl oxidase 2)	0.66	0.34
50	ACBD4 (acyl-CoA binding domain containing 4)	0.88	0.76
51	TMEM256 (transmembrane protein 256)	0.74	1.27
52	SULT1B1 (sulfotransferase family 1B member 1)	0.4	1.29
53	RPS6KB2 (ribosomal protein S6 kinase B2)	0.72 (active)	0.41
54	RPL18P4 (ribosomal protein L18 pseudogene 4)	0.24	1.27
55	ZFPL1 (zinc finger protein like 1)	0.4	0.9
56	RPF2 (ribosome production factor 2 homolog)	0.8	0.94
57	TEP1 (telomerase associated protein 1)	0.71	0.98
